Here are results for 14 targets from the supplement of paper PMC10849652.

Protein sequences, listed by entry. Tags and fused reporters are not part of them. Lines headed by an entry give the natural chain unless they say otherwise; changes in a name come on top.
UniProt P02647, whole entry, looked up: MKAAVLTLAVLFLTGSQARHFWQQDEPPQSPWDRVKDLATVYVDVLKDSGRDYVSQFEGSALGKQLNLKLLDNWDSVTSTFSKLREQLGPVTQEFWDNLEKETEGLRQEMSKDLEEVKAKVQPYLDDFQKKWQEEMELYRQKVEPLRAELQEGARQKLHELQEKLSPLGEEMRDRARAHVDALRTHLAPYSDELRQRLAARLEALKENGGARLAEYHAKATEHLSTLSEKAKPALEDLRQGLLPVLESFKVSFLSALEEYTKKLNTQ
UniProt P05090: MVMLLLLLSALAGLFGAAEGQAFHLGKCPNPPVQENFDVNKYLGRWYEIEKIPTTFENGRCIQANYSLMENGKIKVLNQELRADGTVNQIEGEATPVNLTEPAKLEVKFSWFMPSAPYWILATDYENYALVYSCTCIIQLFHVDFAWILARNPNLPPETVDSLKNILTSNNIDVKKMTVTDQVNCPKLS
UniProt Q9HC16: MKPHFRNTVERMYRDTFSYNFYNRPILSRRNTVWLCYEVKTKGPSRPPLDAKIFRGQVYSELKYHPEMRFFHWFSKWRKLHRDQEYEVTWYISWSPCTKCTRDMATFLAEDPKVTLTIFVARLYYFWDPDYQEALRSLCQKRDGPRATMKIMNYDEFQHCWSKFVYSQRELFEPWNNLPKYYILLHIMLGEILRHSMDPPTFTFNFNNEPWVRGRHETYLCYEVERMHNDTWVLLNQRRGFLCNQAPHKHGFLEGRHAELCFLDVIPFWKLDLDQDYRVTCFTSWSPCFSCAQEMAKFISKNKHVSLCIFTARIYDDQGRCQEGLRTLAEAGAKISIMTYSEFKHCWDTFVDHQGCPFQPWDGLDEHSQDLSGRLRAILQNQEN
UniProt O43182: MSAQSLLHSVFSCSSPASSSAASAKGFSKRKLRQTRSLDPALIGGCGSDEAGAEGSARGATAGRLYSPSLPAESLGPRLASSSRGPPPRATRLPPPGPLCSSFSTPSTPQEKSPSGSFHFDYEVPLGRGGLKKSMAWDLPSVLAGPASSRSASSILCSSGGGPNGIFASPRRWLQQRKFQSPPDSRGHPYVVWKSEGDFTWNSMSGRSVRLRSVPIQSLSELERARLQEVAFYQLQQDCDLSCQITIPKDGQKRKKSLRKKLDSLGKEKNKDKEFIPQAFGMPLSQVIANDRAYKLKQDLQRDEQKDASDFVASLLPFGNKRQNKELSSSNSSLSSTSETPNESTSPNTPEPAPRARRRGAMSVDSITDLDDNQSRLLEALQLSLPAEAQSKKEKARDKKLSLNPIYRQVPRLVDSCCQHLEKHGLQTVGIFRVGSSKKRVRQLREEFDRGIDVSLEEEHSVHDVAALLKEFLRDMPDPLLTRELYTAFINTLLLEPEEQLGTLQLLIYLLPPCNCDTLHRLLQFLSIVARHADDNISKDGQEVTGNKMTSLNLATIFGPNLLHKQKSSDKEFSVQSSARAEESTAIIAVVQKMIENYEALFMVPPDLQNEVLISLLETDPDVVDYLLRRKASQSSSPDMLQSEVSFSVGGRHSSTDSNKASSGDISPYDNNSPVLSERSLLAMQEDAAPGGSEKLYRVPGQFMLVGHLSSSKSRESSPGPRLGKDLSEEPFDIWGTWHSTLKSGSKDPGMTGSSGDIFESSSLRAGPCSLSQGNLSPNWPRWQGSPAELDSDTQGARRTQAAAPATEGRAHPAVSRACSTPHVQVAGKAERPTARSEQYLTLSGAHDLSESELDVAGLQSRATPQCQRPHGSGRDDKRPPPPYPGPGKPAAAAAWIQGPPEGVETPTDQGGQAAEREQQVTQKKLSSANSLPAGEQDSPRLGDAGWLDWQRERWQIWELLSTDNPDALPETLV
UniProt Q96BI3, whole entry, looked up: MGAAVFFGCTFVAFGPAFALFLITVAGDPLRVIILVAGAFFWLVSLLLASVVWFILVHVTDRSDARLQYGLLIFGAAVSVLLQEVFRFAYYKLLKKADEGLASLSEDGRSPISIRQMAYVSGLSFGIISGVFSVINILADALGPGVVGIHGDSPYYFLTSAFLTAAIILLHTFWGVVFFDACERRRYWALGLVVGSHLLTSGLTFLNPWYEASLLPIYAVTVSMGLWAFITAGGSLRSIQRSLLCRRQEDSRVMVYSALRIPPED
UniProt P02749: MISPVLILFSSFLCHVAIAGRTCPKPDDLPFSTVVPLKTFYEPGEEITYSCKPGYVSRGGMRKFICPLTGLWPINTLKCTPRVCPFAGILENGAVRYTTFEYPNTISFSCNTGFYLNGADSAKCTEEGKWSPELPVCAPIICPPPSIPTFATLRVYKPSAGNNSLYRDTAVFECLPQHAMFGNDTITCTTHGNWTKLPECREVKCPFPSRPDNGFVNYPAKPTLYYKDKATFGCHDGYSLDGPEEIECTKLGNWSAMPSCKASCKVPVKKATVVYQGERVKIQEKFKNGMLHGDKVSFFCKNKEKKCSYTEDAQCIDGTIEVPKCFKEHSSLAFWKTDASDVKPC
UniProt Q9HDC9: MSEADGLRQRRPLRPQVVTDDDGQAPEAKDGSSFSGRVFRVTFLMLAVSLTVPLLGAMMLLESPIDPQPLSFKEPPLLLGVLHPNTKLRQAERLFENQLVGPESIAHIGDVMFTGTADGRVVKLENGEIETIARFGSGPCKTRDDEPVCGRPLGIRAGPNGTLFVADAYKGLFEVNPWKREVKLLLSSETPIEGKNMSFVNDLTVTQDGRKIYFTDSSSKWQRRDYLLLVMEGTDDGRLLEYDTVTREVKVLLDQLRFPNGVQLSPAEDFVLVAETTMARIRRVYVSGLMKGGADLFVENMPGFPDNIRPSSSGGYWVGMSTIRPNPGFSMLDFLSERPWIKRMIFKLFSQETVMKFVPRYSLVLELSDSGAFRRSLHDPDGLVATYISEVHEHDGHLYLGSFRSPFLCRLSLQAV
UniProt P08758: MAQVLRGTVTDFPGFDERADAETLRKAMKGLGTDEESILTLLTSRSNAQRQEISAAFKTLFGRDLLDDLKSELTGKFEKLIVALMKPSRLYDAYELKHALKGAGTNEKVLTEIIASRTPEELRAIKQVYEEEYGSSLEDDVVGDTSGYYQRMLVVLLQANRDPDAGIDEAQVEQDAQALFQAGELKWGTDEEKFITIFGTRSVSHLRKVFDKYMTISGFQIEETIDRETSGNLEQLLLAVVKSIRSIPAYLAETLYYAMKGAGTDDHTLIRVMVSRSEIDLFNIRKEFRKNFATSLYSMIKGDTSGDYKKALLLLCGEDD
UniProt Q92572: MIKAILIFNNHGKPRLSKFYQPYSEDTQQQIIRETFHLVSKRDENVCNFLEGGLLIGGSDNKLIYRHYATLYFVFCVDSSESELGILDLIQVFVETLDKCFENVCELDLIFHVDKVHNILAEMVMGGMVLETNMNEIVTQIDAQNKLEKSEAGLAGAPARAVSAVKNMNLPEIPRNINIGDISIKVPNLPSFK
UniProt Q68EM7: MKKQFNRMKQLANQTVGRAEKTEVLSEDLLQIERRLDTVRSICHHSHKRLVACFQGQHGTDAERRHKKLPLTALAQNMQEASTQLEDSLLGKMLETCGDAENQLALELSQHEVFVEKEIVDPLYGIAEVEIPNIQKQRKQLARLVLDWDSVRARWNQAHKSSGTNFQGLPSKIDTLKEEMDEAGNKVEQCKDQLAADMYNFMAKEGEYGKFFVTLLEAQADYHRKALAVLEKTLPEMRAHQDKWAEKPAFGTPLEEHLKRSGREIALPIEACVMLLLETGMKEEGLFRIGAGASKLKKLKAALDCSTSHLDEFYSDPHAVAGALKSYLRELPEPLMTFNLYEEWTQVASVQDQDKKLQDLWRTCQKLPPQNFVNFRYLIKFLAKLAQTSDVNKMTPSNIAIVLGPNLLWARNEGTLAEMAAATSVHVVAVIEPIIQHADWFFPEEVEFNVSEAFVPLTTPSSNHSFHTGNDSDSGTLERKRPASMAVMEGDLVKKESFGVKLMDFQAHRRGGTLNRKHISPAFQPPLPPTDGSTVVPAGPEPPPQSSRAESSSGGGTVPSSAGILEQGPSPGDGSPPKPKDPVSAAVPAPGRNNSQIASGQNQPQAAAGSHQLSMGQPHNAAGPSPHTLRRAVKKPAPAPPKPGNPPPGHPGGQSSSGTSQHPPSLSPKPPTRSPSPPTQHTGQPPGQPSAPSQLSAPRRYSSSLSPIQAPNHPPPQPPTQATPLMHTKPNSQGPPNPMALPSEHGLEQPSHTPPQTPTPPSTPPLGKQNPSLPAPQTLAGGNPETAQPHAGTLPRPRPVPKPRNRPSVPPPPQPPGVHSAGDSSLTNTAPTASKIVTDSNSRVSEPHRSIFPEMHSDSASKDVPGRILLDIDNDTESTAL
UniProt Q9BQD7: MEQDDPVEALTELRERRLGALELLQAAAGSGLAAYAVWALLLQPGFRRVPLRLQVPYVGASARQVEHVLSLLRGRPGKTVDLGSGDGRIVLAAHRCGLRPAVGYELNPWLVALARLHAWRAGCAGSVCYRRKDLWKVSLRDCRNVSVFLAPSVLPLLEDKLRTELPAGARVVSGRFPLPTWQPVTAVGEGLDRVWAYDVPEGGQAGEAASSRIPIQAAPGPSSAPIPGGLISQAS
UniProt Q96GX9: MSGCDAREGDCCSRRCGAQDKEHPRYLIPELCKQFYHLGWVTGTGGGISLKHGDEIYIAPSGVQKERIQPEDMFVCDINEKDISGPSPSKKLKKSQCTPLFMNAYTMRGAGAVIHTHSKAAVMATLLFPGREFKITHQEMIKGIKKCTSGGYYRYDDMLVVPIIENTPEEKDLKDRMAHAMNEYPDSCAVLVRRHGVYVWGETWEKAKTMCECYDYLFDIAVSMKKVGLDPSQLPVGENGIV
UniProt Q13795: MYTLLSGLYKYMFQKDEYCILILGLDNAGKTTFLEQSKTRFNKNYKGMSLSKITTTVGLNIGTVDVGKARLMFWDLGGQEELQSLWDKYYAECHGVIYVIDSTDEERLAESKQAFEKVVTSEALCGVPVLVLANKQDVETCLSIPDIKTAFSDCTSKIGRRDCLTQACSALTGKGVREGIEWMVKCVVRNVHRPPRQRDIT
UniProt O15084: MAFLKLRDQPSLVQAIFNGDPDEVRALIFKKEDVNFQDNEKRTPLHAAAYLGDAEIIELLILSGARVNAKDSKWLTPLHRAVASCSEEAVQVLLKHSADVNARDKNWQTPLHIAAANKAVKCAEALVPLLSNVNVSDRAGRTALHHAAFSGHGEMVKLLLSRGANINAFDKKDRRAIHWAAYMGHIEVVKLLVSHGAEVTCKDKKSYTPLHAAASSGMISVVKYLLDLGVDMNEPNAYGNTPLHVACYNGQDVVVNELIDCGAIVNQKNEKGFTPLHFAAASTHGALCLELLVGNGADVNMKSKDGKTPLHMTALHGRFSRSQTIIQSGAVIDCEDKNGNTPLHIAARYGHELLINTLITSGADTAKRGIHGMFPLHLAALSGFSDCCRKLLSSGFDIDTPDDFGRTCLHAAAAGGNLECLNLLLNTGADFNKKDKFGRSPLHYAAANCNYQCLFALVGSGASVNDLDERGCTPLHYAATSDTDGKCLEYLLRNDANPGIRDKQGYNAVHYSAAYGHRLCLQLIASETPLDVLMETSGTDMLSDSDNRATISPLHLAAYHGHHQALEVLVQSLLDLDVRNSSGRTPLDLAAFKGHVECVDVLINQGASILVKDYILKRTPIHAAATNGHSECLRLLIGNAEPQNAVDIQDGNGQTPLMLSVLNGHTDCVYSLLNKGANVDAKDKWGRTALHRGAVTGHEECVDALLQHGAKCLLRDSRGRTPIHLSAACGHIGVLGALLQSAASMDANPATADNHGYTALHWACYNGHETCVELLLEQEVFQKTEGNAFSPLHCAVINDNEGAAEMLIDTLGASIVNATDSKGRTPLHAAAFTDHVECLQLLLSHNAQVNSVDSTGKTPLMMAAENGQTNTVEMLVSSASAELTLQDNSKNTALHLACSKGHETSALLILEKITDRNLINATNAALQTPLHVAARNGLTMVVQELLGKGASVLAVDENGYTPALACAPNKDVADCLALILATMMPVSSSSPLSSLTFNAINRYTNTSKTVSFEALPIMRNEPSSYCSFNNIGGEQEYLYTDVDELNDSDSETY

The other results are listed elsewhere or left out.

What all share (test): log2 fold change, soluble protein after heating vs DMSO (PISA); higher = thermal stabilisation; K562 cells, 10 uM, 30 min; active = over 0.2 and 3.5 SD of the protein, either way, in both replicates (recomputed)
Compound in experiment [1]: NC(=O)Nc1cc(-c2cccc(F)c2)sc1C(=O)N[C@H]1CCCNC1
An outline of the steps:
(§1)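 Aliquots of K562 cells (2×10^6 cells/mL) treated with 10 μM compound for 30 min were heated for 3 min over 48°C-58°C. After pooling and extraction in PBS with 0.5% NP-40 at 4°C, soluble protein from a 21,000xg, 90 min spin was quantified by TMTpro 16plex LC-MS/MS with channel sums equalised. Thermal stability is expressed against control samples, from duplicates, as a log2 fold change.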

Compound in experiment [2]: NC(=O)c1cnc(N[C@@H]2CCCC[C@@H]2N)nc1Nc1cccc(-n2nccn2)c1
Put shortly:
as §1

Compound in experiment [3]: NC1(c2ccc(-c3nc4ccn5c(=O)[nH]nc5c4cc3-c3ccccc3)cc2)CCC1
Put shortly:
as §1

Compound in experiment [4]: NCC(=O)Nc1ccc(-n2nc(C(F)(F)F)cc2-c2ccc3c(ccc4ccccc43)c2)cc1
An outline of the steps:
as §1

Compound in experiment [5]: Nc1ccccc1NC(=O)c1ccc(CNC(=O)OCc2cccnc2)cc1 [entinostat]
An outline of the steps: as §1

Compound in experiment [6]: O=C(CCCCCCC(=O)Nc1ccccc1)NO [vorinostat]
An outline of the steps:
as §1

Compound in experiment [7]: O=C(CCCCCCNC(=O)c1cnc(N(c2ccccc2)c2ccccc2Cl)nc1)NO [citarinostat]
An outline of the steps: as §1

Compound in experiment [8]: O=C(O)c1ccc2c(c1)nc(Nc1cccc(Cl)c1)c1ccncc12 [silmitasertib]
Put shortly: as §1

Compound in experiment [9]: O=C1NC(=O)C(c2cnc3ccccn23)=C1c1cn2c3c(cc(F)cc13)CN(C(=O)N1CCCCC1)CC2
An outline of the steps:
as §1

Compound in experiment [10]: c1cc(OCCN2CCCCC2)cc(-c2n[nH]c3ccc(-c4nnc[nH]4)cc23)c1
Put shortly: as §1

For APOA1 (UniProt P02647), the log2 fold change in [1] was inactive: -0.094; in experiment [2], inactive: 0.048; in experiment [3], inactive: 0.111; in experiment [4] it was inactive: 0.015; in experiment [5], inactive: -0.088; in [6], inactive: 0.094. For the same target, the log2 fold change in [7] was inactive: 0.039; in experiment [8] it was inactive: 0.083; in [9], inactive: -0.008; in [10] it was inactive: 0.148.

As to APOD (UniProt P05090), the log2 fold change in experiment [1] was inactive: 0.254; in experiment [2], inactive: 0.38; in [3] it was inactive: 0.507; in experiment [4], inactive: -0.104; in experiment [5], inactive: -0.048; in experiment [7] it was inactive: -0.2. Further, the log2 fold change in experiment [8] is inactive: -0.493; in experiment [10], inactive: 1.18.

Regarding APOBEC3G (UniProt Q9HC16), the log2 fold change in [1] was inactive: 0.046; in experiment [2], inactive: 0.149; in experiment [3], inactive: 0.061; in [4] it was inactive: -0.027; in experiment [5], inactive: 0.026; in experiment [7], inactive: 0.125. Moreover, the figures for the log2 fold change in experiment [8], in experiment [9] and in experiment [10] were inactive: 0.116, inactive: 0.202 and inactive: -0.013, respectively.

On to ARHGAP6 (UniProt O43182), for which the log2 fold change in [1] is inactive: -0.197; in [2], inactive: -0.305; in experiment [3] it was inactive: 0.169; in experiment [5], inactive: 0.036; in experiment [7] it was inactive: -0.013; in [8], inactive: 0.445. The values for the log2 fold change in [9] and in [10] were inactive: 0.225 and inactive: -0.173, respectively.

For APH1A (UniProt Q96BI3), the log2 fold change in experiment [1] is inactive: -0.048; in [2], inactive: -0.201; in experiment [3], inactive: -0.075; in experiment [4] it was active: 0.303; in [5], inactive: 0.014; in experiment [6], inactive: -0.024. Besides, the log2 fold change in experiment [7] was inactive: 0.055; in [8] it was inactive: 0.006; in [10], inactive: 0.085.

Take APOH (UniProt P02749): the log2 fold change in [1] is inactive: -0.094; in [2], inactive: -0.109; in experiment [3] it was inactive: -0.414; in [4] it was inactive: 0.065; in experiment [5], inactive: 0.06; in [6], inactive: 0.354. For the same target, the log2 fold change is inactive: -0.149 in experiment [7], inactive: 0.565 in [8] and inactive: 0.006 in [10].

Regarding APMAP (UniProt Q9HDC9), the log2 fold change in experiment [1] was inactive: 0.006; in [2], inactive: -0.02; in experiment [3], inactive: -0.071; in [4], inactive: -0.016; in experiment [5], inactive: -0.025; in [6] it was inactive: -0.035. The log2 fold change is inactive: 0.012 in [7], inactive: 0.001 in experiment [8], inactive: -0.008 in [9] and inactive: -0.017 in experiment [10].

For the target ANXA5 (UniProt P08758), the log2 fold change in experiment [1] was inactive: -0.021; in experiment [2] it was inactive: -0.044; in experiment [3], inactive: -0.139; in [4], inactive: -0.031; in experiment [5] it was inactive: 0.055; in [6], inactive: 0.027. For the same target, the log2 fold change in [7] was inactive: 0.115; in [8], inactive: 0; in [9], inactive: -0.045; in experiment [10], inactive: -0.008.

As to AP3S1 (UniProt Q92572), the log2 fold change in experiment [1] was inactive: 0.001; in [2] it was inactive: 0.015; in experiment [3], inactive: -0.03; in [4], inactive: -0.02; in [5] it was inactive: 0.027; in experiment [6], inactive: 0.016. Further, the log2 fold change in experiment [7] was inactive: 0.041; in [8], inactive: 0; in [9], inactive: -0.004; in experiment [10] it was inactive: -0.056.

Turning to ARHGAP17 (UniProt Q68EM7), the log2 fold change in experiment [1] is inactive: -0.102; in [2] it was inactive: -0.113; in experiment [3], inactive: -0.11; in experiment [4] it was inactive: -0.074; in experiment [5] it was inactive: 0.055; in experiment [6], inactive: 0.117. Besides, the log2 fold change in experiment [7] is inactive: 0.064; in experiment [8], inactive: 0.091; in [9], inactive: 0.09; in experiment [10] it was inactive: -0.077.

Take ANTKMT (UniProt Q9BQD7): the log2 fold change is inactive: -0.16 in experiment [1]; inactive: -0.168 in [2]; inactive: 0.041 in [4]; inactive: -0.195 in [5]; inactive: 0.034 in experiment [6]; inactive: -0.057 in experiment [7]. The log2 fold change in [9] is inactive: -0.222; in [10], inactive: 0.062.

In the case of APIP (UniProt Q96GX9), the log2 fold change is inactive: -0.027 in experiment [1]; inactive: -0.005 in [2]; inactive: 0.003 in [3]; inactive: 0.028 in [4]; inactive: -0.017 in [5]; inactive: -0.025 in experiment [6]. The log2 fold change in [7] is inactive: 0.031; in [8], inactive: 0.032; in experiment [9], inactive: -0.015; in experiment [10], inactive: -0.026.

As for ARFRP1 (UniProt Q13795), the log2 fold change was inactive: 0.167 in experiment [1]; inactive: 0.108 in experiment [2]; inactive: -0.173 in experiment [3]; inactive: 0.067 in experiment [4]; inactive: 0.117 in [5]; inactive: 0.054 in [6]. Also, the log2 fold change in [7] is inactive: 0.025; in experiment [8], inactive: 0.013; in [9], inactive: -0.085; in [10], inactive: 0.074.

With ANKRD28 (UniProt O15084), the log2 fold change in experiment [1] is inactive: -0.06; in [2], inactive: -0.058; in experiment [3], inactive: -0.083; in [4], inactive: -0.003; in experiment [5], inactive: 0.01; in experiment [6], inactive: 0.043. The log2 fold change in [7] was inactive: 0.06; in experiment [8], inactive: 0.02; in experiment [9], inactive: -0.009; in [10] it was inactive: -0.03.
